Source: patent US10017832
Numbering of substitutions follows the chain as printed. For some assays here: Negatives hold for the conditions tested. For some assays here: Where a protein sequence is shown, tags need not be part of it. For some assays here: A weaker result is weaker than the reference pair of the same experiment.

Key:
Assay in all cases: enzyme reaction in vitro
[1] = target: T1, Cre-A2 K25R,D29R,R32E,D33L,Q35R,R337E (UniProt P06956); conditions: reduced relative to Cre-A1; purified recombinant protein; protein details: N-terminal Met-His7 (in vitro assay)
T1 sequence: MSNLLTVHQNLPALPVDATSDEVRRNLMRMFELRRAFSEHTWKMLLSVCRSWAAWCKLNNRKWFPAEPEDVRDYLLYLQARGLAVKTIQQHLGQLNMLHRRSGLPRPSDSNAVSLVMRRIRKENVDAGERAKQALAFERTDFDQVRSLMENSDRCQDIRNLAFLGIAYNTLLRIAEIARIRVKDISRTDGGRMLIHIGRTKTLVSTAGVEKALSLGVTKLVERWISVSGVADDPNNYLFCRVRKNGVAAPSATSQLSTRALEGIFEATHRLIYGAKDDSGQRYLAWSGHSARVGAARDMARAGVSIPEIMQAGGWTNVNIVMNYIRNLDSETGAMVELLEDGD

[2] = target: T2, Cre-A3 (UniProt P06956); conditions: homotetramer recombination disrupted; DNA binding not measured; purified recombinant protein; protein details: N-terminal Met-His7 (in vitro assay)
T2 sequence: T1 sequence with E123L

[3] = test system: Cre-A1+Cre-B1 chain 1: K25R,D29R,R32E,D33L,Q35R, chain 2: E69D,R72K,L76E; conditions: combined pair active; purified recombinant protein; protein details: N-terminal Met-His7 (in vitro assay)
[4] = target: T3, Cre-B1 E69D,R72K,L76E (UniProt P06956); conditions: recombination inactive in isolation; DNA binding not measured; purified recombinant protein; protein details: N-terminal Met-His7 (in vitro assay)
T3 sequence: T1 sequence with R25K, R29D, E32R, L33D, R35Q, E69D, R72K, L76E, E337R

[5] = test system: Cre-A3+Cre-B2; conditions: heterotetramer active; purified recombinant protein; protein details: N-terminal Met-His7 (in vitro assay)
[6] = target: T4, Cre-B2 (UniProt P06956); conditions: recombination inactive in isolation; DNA binding not measured; purified recombinant protein; protein details: N-terminal Met-His7 (in vitro assay)
T4 sequence: T1 sequence with R25K, R29D, E32R, L33D, R35Q, E69D, R72K, L76E, E308R, E337R

[7] = target: T5, Cre-A1 K25R,D29R,R32E,D33L,Q35R (UniProt P06956); conditions: active individually; purified recombinant protein; protein details: N-terminal Met-His7 (in vitro assay)
T5 sequence: T1 sequence with E337R

[8] = test system: Cre-A2+Cre-B2 chain 1: K25R,D29R,R32E,D33L,Q35R,R337E; conditions: strong recombinase activity; purified recombinant protein; protein details: N-terminal Met-His7 (in vitro assay)

With “ATAACTTCGTATAGCATACATTATACGAAGTTAT (double strand) [loxP]” the “activity on this sequence” value [1] was “less active”, the “activity on this sequence” value [2] was “not active” and the “activity on this sequence” value [3] was “active”. For the same sequence, the “activity on this sequence” value [4] was “not active”, the “activity on this sequence” value [5] was “active” and the “activity on this sequence” value [6] was “not active”. For the same sequence, the “activity on this sequence” value [7] was “active” and the “activity on this sequence” value [8] was “active”.
